{"sequences": {"note": "The chains behind the UniProt entries cited, without tags or fusion partners. Where a name states a change or a piece, a line headed by the entry shows the natural chain unless it says otherwise.", "UniProt Q01638": "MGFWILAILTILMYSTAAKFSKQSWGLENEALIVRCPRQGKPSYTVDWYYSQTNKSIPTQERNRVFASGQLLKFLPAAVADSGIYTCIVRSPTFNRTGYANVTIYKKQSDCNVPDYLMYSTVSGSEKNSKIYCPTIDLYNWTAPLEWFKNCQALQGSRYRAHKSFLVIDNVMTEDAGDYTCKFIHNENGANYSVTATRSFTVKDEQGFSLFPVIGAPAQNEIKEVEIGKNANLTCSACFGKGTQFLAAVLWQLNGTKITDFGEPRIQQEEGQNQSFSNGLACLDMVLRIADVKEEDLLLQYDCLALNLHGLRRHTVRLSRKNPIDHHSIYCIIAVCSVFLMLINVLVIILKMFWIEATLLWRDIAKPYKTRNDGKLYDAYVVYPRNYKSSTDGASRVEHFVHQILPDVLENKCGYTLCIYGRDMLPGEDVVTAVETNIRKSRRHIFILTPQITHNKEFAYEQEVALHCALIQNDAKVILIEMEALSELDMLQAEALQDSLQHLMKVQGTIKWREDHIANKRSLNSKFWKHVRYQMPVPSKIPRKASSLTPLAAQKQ"}, "source": "PubChem BioAssay AID1259354", "about": "(Paczesny and Yang Labs, IUPUI and University of Michigan, 2018)", "note": "In all, about 78,000 compounds went through this assay and about 1,800 (2.3%) were called active. The inconclusive results got no clear call from the source; some entries with a clear call stand among them for comparison. Cut-off read from the data, not from the text of the source: active = inhibition above about 30%; inconclusive = mostly about 10% to 28%; inactive = weaker than that."}
{"biological_target": "Interleukin-1 receptor-like 1 (Homo sapiens) (UniProt Q01638)", "assay": "blocks human ST2 binding to IL-33, primary screen, biochemical, AlphaLISA (AID 1259354)", "settings": "AlphaLISA ST2-Fc/biotin-IL-33 interaction, 1 h; at 17 µM, hits give high values"}
{"smiles": "C=CCNC(=O)C[C@@H]1CCN(C(=O)c2cccnc2)C[C@@H]1CC", "inhibition": "inconclusive: 12%"}
{"smiles": "Fc1ccccc1CN1CCN(Cc2cccc3ccccc23)CC1", "inhibition": "inconclusive: 13%"}
{"smiles": "Cc1cc(C)c(Cn2c(=O)n(CCCC(=O)NCc3ccco3)c(=O)c3sccc32)c(C)c1", "inhibition": "inconclusive: 17%"}
{"smiles": "CC1CCN(C(=O)C2(S(=O)(=O)c3ccc(Cl)cc3)CC2)CC1", "inhibition": "inactive"}
{"smiles": "O=C(Nc1ccccc1)C(Cc1c[nH]c2ccccc12)NC(=O)C(c1ccccc1)c1ccccc1", "note": "(stereo not given)", "inhibition": "inactive"}
{"smiles": "CC(C)OCCCNC(=O)c1ccc(CS(=O)(=O)c2c(Cl)cccc2Cl)o1", "inhibition": "inconclusive: 14%"}
{"smiles": "COc1cccc(C2CC(c3cccs3)=NN2C(=O)CSc2c[nH]c3ccccc23)c1OC", "note": "(stereo not given)", "inhibition": "inconclusive: 22%"}
{"smiles": "COCC(=O)N1CCCN(CC2=Cc3cccc(OC)c3OC2)CC1", "inhibition": "inactive"}
{"smiles": "COc1cccc(CC(C2CCN(C(=O)CC3CCCCC3)CC2)N(C)C(=O)c2ccn(C)n2)c1", "note": "(stereo not given)", "inhibition": "inactive"}
{"smiles": "COc1ccccc1C(C)N(C)C(=O)c1cn(Cc2c(F)cccc2F)nn1", "note": "(stereo not given)", "inhibition": "inconclusive: 12%"}
{"smiles": "CCOC(=O)c1c(NC(=O)c2cc(Cl)cc(Cl)c2OC)sc(C)c1C", "inhibition": "inactive"}
{"smiles": "N#C/C(=C/c1ccc2c(c1)OCO2)c1nc(-c2cccc(Br)c2)cs1", "inhibition": "active: 30%"}
{"smiles": "Cc1ccn2c(NC(=O)COc3ccc(Cl)cc3)c(-c3cccs3)nc2c1", "inhibition": "inconclusive: 23%"}
{"smiles": "CC(C)NC(=O)NCCc1nc2cccnc2n1C1CCCCC1", "inhibition": "inconclusive: 17%"}
{"smiles": "CC1CCN(C(=O)CSc2nc(-c3cccs3)nc3c2c(=O)n(C)c(=O)n3C)CC1", "inhibition": "inconclusive: 18%"}
{"smiles": "O=C(O)COc1ccc(Br)cc1/C=C1\\NC(=O)N(Cc2ccc(Cl)cc2)C1=O", "inhibition": "inconclusive: 15%"}
{"smiles": "CCOC(=O)c1sc2ccccc2c1NC(=O)c1coc2ccccc2c1=O", "inhibition": "inconclusive: 17%"}
{"smiles": "Cc1ccn2c(-c3csc(NCc4ccco4)n3)c(C)nc2c1", "inhibition": "inconclusive: 17%"}
{"smiles": "CCCS(=O)(=O)N1CCCC(C(=O)N2CCC(C(N)=O)CC2)C1", "note": "(stereo not given)", "inhibition": "inactive"}
{"smiles": "Cc1cccc(-c2noc(CN(C)Cc3cccn3-c3nccs3)n2)c1", "inhibition": "inconclusive: 13%"}
{"smiles": "Cc1ccc2nc(/C(C#N)=C/c3cc([N+](=O)[O-])ccc3Cl)[nH]c2c1", "inhibition": "inconclusive: 29%"}
{"smiles": "COc1ccc(N2CCN(Cc3ccsc3)CC2)cc1", "inhibition": "inconclusive: 21%"}
{"smiles": "CS(=O)(=O)NC1CCN(CCn2c(=O)oc3ccccc32)CC1", "inhibition": "inconclusive: 11%"}
{"smiles": "CCC(C(=O)Nc1c(C)cc(C)cc1C)N1CCCCCC1", "note": "(stereo not given)", "inhibition": "inconclusive: 23%"}
{"smiles": "Cc1cc(CN2C(=O)C(=O)c3ccccc32)c(C)cc1CN1C(=O)C(=O)c2ccccc21", "inhibition": "inactive"}
